Data as given in PubChem BioAssay AID1224826 (NIAID, 2016).
Purpose: 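Knock-downs that raise or lower Tnf reporter signal after endotoxin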 (primary screen). Cell system: RAW264.7 G9 macrophages from mouse bearing reporters for p65 (GFP) and the Tnf promoter (mCherry). Reagents: siRNA pool against mouse genes, 100 nM. Timing: 16 h of LPS stimulation, after 2 days of siRNA transfection. Treatment: bacterial lipopolysaccharide (Salmonella minnesota R595), 10 ng/ml. Detection: 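Nuclear mCherry signal of the Tnf promoter reporter measured by imaging after background removal, scaled to each plate median and turned into robust z-scores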. Reading the numbers: Tnf reporter robust z-score: higher = stronger Tnf promoter reporter signal after LPS. Hit rule: 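Called active when robust z-score is at most -1.3, matching the median of the Tlr4 knock-down control, or over 3; control wells and wells with under 50 cells never active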. Calls: active = Tnf reporter clearly lowered or raised; inactive = no clear change in Tnf reporter.
Shown is one part, drawn at random, of about 17,000 deposited reagents. Of all reagents, about 1,110 (6.6%) got an active call. 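Active means lowered or raised reporter signal; replicate intensities are raw and not normalised per plate.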 Entries without a mark were called inactive. Further read-outs or replicates are left out here.

| Tnf reporter robust z-score | fewer than 50 cells in well | gene |
| --- | --- | --- |
| 1.75 | enough cells in well | Or8c13 |
| -0.72 | enough cells in well | Oxtr |
| -0.81 | enough cells in well | Myh7 |
| 0.47 | enough cells in well | Foxj1 |
| 0.78 | enough cells in well | Srrm4 |
| 0.92 | enough cells in well | Mtf2 |
| 0.74 | enough cells in well | Epha1 |
| -0.01 | enough cells in well | Il2rg |
| -0.11 | enough cells in well | Hipk3 |
| -0.34 | enough cells in well | Tspan9 |
| 0.52 | enough cells in well | Lin54 |
| 0.03 | enough cells in well | Homer1 |
| -0.66 | enough cells in well | Lefty1 |
| -0.88 | enough cells in well | Plekhg4 |
| -1 | enough cells in well | Lrfn5 |
| -0.87 | enough cells in well | Ap4s1 |
| – | fewer than 50 cells per well; well left out of calls | Fam25a |
| -0.77 | enough cells in well | 4933430I17Rik |
| 0.37 | enough cells in well | Dhx57 |
| 0.59 | enough cells in well | 9430019C24Rik |
| – | fewer than 50 cells per well; well left out of calls | Nup43 |
| 1.42 | enough cells in well | Haglr |
| -1.31 (active) | enough cells in well | Gfpt2 |
| 1.21 | enough cells in well | Skor1 |
| 0.33 | enough cells in well | Trf |
| 0.85 | enough cells in well | Mrps28 |
| -0.62 | enough cells in well | Ttf2 |
| -0.86 | enough cells in well | Cntnap4 |
| 2.1 | enough cells in well | Morn4 |
| 0.7 | enough cells in well | Tas2r135 |
| -0.22 | enough cells in well | Acly |
| 0.27 | enough cells in well | Mipep |
| -1.08 | enough cells in well | Nmrk1 |
| 0.75 | enough cells in well | Ddx20 |
| -0.26 | enough cells in well | Tfpi |
| 0.29 | enough cells in well | Als2 |
| 1.86 | enough cells in well | Rmnd1 |
| -0.21 | enough cells in well | Defa5 |
| 1.24 | enough cells in well | Ccdc88c |
| -0.43 | enough cells in well | Sell |
| -1.46 (active) | enough cells in well | 1700025G04Rik |
| -0.87 | enough cells in well | Ifit2 |
| 1.56 | enough cells in well | Cdk5rap3 |
| -0.26 | enough cells in well | Coro2b |
| 2.56 | enough cells in well | Arxes1 |
| -0.35 | enough cells in well | A430010J10Rik |
| -0.18 | enough cells in well | Usp30 |
| -1.02 | enough cells in well | Dynlt3 |
| -1.08 | enough cells in well | Ctsf |
| -0.91 | enough cells in well | Nek9 |

In a second layout: entries from further up
Tnf reporter robust z-score	fewer than 50 cells in well	gene
-1	enough cells in well	Lrfn5
-0.87	enough cells in well	Ap4s1
	fewer than 50 cells per well; well left out of calls	Fam25a
-0.77	enough cells in well	4933430I17Rik
0.37	enough cells in well	Dhx57
0.59	enough cells in well	9430019C24Rik

Continued.
| Tnf reporter robust z-score | fewer than 50 cells in well | gene |
| --- | --- | --- |
| 0.61 | enough cells in well | Galntl6 |
| -1.62 (active) | enough cells in well | Or14j3 |
| -0.63 | enough cells in well | Prim2 |
| 4.62 (active) | enough cells in well | Sugp2 |
| 0.44 | enough cells in well | Mrgpra3 |
| -0.41 | enough cells in well | Rgl2 |
| -0.5 | enough cells in well | Tmem64 |
| 1.63 | enough cells in well | Ptcd3 |
| -0.4 | enough cells in well | 5330439B14Rik |
| – | fewer than 50 cells per well; well left out of calls | Thap3 |
| 0.35 | enough cells in well | Six4 |
| 0.47 | enough cells in well | B4galt1 |
| 0.09 | enough cells in well | Sigirr |
| -0.99 | enough cells in well | Nme4 |
| 0.31 | enough cells in well | Nudc |
| – | fewer than 50 cells per well; well left out of calls | Serinc1 |
| 1.91 | enough cells in well | Tbrg3 |
| -0.96 | enough cells in well | Pcdhb1 |
| – | fewer than 50 cells per well; well left out of calls | Ncapd2 |
| 1.21 | enough cells in well | Dhh |
| 0.88 | enough cells in well | Chrac1 |
| -1.31 (active) | enough cells in well | Cog2 |
| -0.03 | enough cells in well | Slc28a3 |
| -0.08 | enough cells in well | Sdhaf4 |
| -1.15 | enough cells in well | Rpl37a |
